From PMC8616041
These are yes or no findings as the source states them, for the method shown. Binding seen in cells or lysates may run through a third protein. Some entries that bind do so weakly or less than the wild type.

Biological target: V^N-DJ-1 (human) (UniProt Q99497)
Assay: split reporter; mVenus BiFC constructs co-transfected into HeLa cells; BiFC signal detected on fixed samples by confocal microscopy

binding: binds
Substance: V^C-TPPP/p25 (from UniProt O94811 1-219)
